Source: patent US7186551B1, “3′-phosphoadenosine -5′-phosphosulfate synthetase 2 (PAPSS2) sequence variants” (Mayo Foundation for Medical Education and Research, priority 2001, dated 2007)
Some results were stated once for a whole list of compounds, not compound by compound.

Test system: PAPSS2
Assay: Substrate kinetic studies of recombinant PAPSS2 with ATP and Na2SO4
Type: biochemical, human
Conditions: ATP varied 0.125-4 mM, Na2SO4 4 mM
Description: To estimate apparent Km values of PAPSS2 for the two reaction cosubstrates, a series of ATP (0.125–4 mM) and Na2SO4 (0.125–16 mM) concentrations were tested with the recombinant allozymes. When ATP was the varied substrate, the concentration of Na2SO4 was 4 mM, and when Na2SO4 was the varied substrate, the concentration of ATP was 1 mM. Blanks for each substrate concentration were included by assaying COS-1 cell cytosol after transfection with empty vector.
Data Analysis: Apparent Km values were calculated by using the method of Wilkinson with a computer program written by Cleland. Wilkinson, Biochem. J., 80:324–332 (1961); and Cleland, Nature, 198:[…] (1963). Statistical comparisons of data were performed by ANOVA with the StatView program, version 4.5 (Abacus Concepts, Inc., Berkeley, Calif.). Apparent Km, S50 and Vmax values for the wild-type and variant PAPSS2 allozymes were compared by the use of unpaired Student's t-test.
Alterations in amino acid sequence can alter enzyme substrate affinity and/or catalytic efficiency. […] In summary, decreased activity for the Val1291Met variant appeared to result from an alteration in substrate kinetics, while decreased activity for the Glu10Lys allozyme, in contrast, resulted primarily from a decrease in the quantity of enzyme protein. […]

B1: wild type: reference human PAPSS2 polypeptide (SEQ ID NO:9, GenBank AF091242), recombinantly expressed in COS-1 cells (protein, listed as Homo sapiens)
chain: MSGIKKQKTENQQKSTNVVYQAHHVSRNKRGQVVGTRGGFRGCTVWLTGLSGAGKTTISFALEEYLVSHAIPCYSLDGDNVRHGLNRNLGFSPGDREENIRRIAEVAKLFADAGLVCITSFISPFAKDRENARKIHESAGLPFFEIFVDAPLNICESRDVKGLYKRARAGEIKGFTGIDSDYEKPETPERVLKTNLSTVSDCVHQVVELLQEQNIVPYTIIKDIHELFVPENKLDHVRAEAETLPSLSITKLDLQWVQVLSEGWATPLKGFMREKEYLQVMHFDTLLDDGVINMSIPIVLPVSAEDKTRLEGCSKFVLAHGGRRVAILRDAEFYEHRKEERCSRVWGTTCTKHPHIKMVMESGDWLVGGDLQVLEKIRWNDGLDQYRLTPLELKQKCKEMNADAVFAFQLRNPVHNGHALLMQDTCRRLLERGYKHPVLLLHPLGGWTKDDDVPLDWRMKQHAAVLEEGVLDPKSTIVAIFPSPMLYAGPTEVQWHCRSRMIAGANFYIVGRDPAGMPHPETKKDLYEPTHGGKVLSMAPGLTSVEIIPFRVAAYNKAKKAMDFYDPARHNEFDFISGTRMRKLAREGENPPDGFMAPKAWKVLTDYYRSLEKN
For B1, the “Hill coefficient, ATP” value was “greater than 2”.
